# In patent US9622986B2 (priority 2012, dated 2017):
# Experiment: Evaluation of polymers: solubilization of donepezil base, appearance of solution
# Type: physicochemical
# Details: when polyvinylpyrrolidone is used
compound,measurement,value
"COc1cc2c(cc1OC)C(=O)C(CC1CCN(Cc3ccccc3)CC1)C2 (stereo not shown) [donepezil, 2-[(1-benzyl-4-piperidinyl)methyl]-5,6-dimethoxyindan-1-one]",Dissolution of donepezil,completely dissolved
